# Assay results from the supplement of paper PMC11438910.
# Some of the results follow. The signal is at background level for most entries.
# B1: 4-99.5 (protein)
# chain 1: QVQLQESGPGLVKPSETLSLTCAVSGYSISSGYYWGWIRQPPGKGLEYIGYISGSSGSPYYNPSLKSRVTISKDTSKNQFSLKLSSATAADTAVYYCARRQVGIGFDYWGQGVLVTVSS
# chain 2: QAAPTQPPSVSGSPGQSVTISCTGTSSDIGYYNAVSWYQQHPGKAPKLMIYEVSKRPSGVSDRFSGSKSGNTASLTISGLQAEDEADYYCSSYAGSNTYIFGAGTRLTVL
# Tests used:
# Test in all cases: fluorescence intensity of antibody binding to polysaccharide-coupled beads; higher = stronger binding
# [1] = biological target: pneumococcal polysaccharide Pn16F
# Procedure: (§1)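 Recombinant rhesus-murine chimeric IgG1 antibodies were tested against antigen-coupled MagPlex beads in a 96-plex Luminex direct immunoassay (dLIA). The beads carried pneumococcal capsular polysaccharides of 93 serotypes plus C-polysaccharides. Antibody was added at 0.1–12,500 ng/mL for 1 h, then PE anti-mouse IgG, and net MFI was read on a Bio-Plex 3D. Only the rhesus variable regions are printed; constant regions are murine IgG1/kappa/lambda, and the signal peptide is MGWSCIILFLVATATGVHS.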
# [2] = biological target: pneumococcal polysaccharide Pn17A
# Procedure: as §1
# [3] = biological target: pneumococcal polysaccharide Pn17F
# Procedure: as §1
# [4] = biological target: pneumococcal polysaccharide Pn18A
# Procedure: as §1
# [5] = biological target: pneumococcal polysaccharide Pn18B
# Procedure: as §1
# [6] = biological target: pneumococcal polysaccharide Pn18C
# Procedure: as §1
# [7] = biological target: pneumococcal polysaccharide Pn18F
# Procedure: as §1
# [8] = biological target: pneumococcal polysaccharide Pn19A
# Procedure: as §1
# [9] = biological target: pneumococcal polysaccharide Pn19B
# Procedure: as §1
# [10] = biological target: pneumococcal polysaccharide Pn19C
# Procedure: as §1
# [11] = biological target: pneumococcal polysaccharide Pn19F
# Procedure: as §1
# [12] = biological target: pneumococcal polysaccharide Pn2
# Procedure: as §1
# [13] = biological target: pneumococcal polysaccharide Pn20A
# Procedure: as §1
# [14] = biological target: pneumococcal polysaccharide Pn20B
# Procedure: as §1
# [15] = biological target: pneumococcal polysaccharide Pn21
# Procedure: as §1
# [16] = biological target: pneumococcal polysaccharide Pn22A
# Procedure: as §1
# [17] = biological target: pneumococcal polysaccharide Pn22F
# Procedure: as §1
# [18] = biological target: pneumococcal polysaccharide Pn23A
# Procedure: as §1
# [19] = biological target: pneumococcal polysaccharide Pn23B
# Procedure: as §1
# [20] = biological target: pneumococcal polysaccharide Pn23F
# Procedure: as §1
# [21] = biological target: pneumococcal polysaccharide Pn24A
# Procedure: as §1
# [22] = biological target: pneumococcal polysaccharide Pn24B
# Procedure: as §1
# [23] = biological target: pneumococcal polysaccharide Pn24F
# Procedure: as §1
# [24] = antibody concentration 81.7561 ng/mL
# [25] = antibody concentration 437.17 ng/mL
# [26] = antibody concentration 2337.65 ng/mL
# [27] = antibody concentration 12500 ng/mL
# [28] = antibody concentration 0.1 ng/mL
# [29] = antibody concentration 0.534724 ng/mL
# [30] = antibody concentration 2.8593 ng/mL
# [31] = antibody concentration 15.2894 ng/mL
binder,measurement,setting,value
B1,fluorescence intensity,[1]; [24],22.5 MFI
same,fluorescence intensity,[1]; [25],26 MFI
same,fluorescence intensity,[1]; [26],28.2 MFI
same,fluorescence intensity,[1]; [27],37.5 MFI
same,fluorescence intensity,[2]; [28],21.5 MFI
same,fluorescence intensity,[2]; [29],22 MFI
same,fluorescence intensity,[2]; [30],20.5 MFI
same,fluorescence intensity,[2]; [31],20 MFI
same,fluorescence intensity,[2]; [24],22 MFI
same,fluorescence intensity,[2]; [25],21 MFI
same,fluorescence intensity,[2]; [26],22.5 MFI
same,fluorescence intensity,[2]; [27],24 MFI
same,fluorescence intensity,[3]; [28],26.5 MFI
same,fluorescence intensity,[3]; [29],27 MFI
same,fluorescence intensity,[3]; [30],26.5 MFI
same,fluorescence intensity,[3]; [31],27 MFI
same,fluorescence intensity,[3]; [24],25.8 MFI
same,fluorescence intensity,[3]; [25],28.5 MFI
same,fluorescence intensity,[3]; [26],29.8 MFI
same,fluorescence intensity,[3]; [27],30.8 MFI
same,fluorescence intensity,[4]; [28],25 MFI
same,fluorescence intensity,[4]; [29],24.5 MFI
same,fluorescence intensity,[4]; [30],23.5 MFI
same,fluorescence intensity,[4]; [31],22 MFI
same,fluorescence intensity,[4]; [24],23.5 MFI
same,fluorescence intensity,[4]; [25],25.5 MFI
same,fluorescence intensity,[4]; [26],25 MFI
same,fluorescence intensity,[4]; [27],30.5 MFI
same,fluorescence intensity,[5]; [28],30 MFI
same,fluorescence intensity,[5]; [29],31.8 MFI
same,fluorescence intensity,[5]; [30],29 MFI
same,fluorescence intensity,[5]; [31],29 MFI
same,fluorescence intensity,[5]; [24],30 MFI
same,fluorescence intensity,[5]; [25],32 MFI
same,fluorescence intensity,[5]; [26],34 MFI
same,fluorescence intensity,[5]; [27],40.5 MFI
same,fluorescence intensity,[6]; [28],19.2 MFI
same,fluorescence intensity,[6]; [29],19 MFI
same,fluorescence intensity,[6]; [30],21.5 MFI
same,fluorescence intensity,[6]; [31],19.5 MFI
same,fluorescence intensity,[6]; [24],18.8 MFI
same,fluorescence intensity,[6]; [25],20.5 MFI
same,fluorescence intensity,[6]; [26],21.8 MFI
same,fluorescence intensity,[6]; [27],27 MFI
same,fluorescence intensity,[7]; [28],24.2 MFI
same,fluorescence intensity,[7]; [29],23 MFI
same,fluorescence intensity,[7]; [30],24 MFI
same,fluorescence intensity,[7]; [31],23.5 MFI
same,fluorescence intensity,[7]; [24],24.5 MFI
same,fluorescence intensity,[7]; [25],26 MFI
same,fluorescence intensity,[7]; [26],26.5 MFI
same,fluorescence intensity,[7]; [27],34.5 MFI
same,fluorescence intensity,[8]; [28],19.5 MFI
same,fluorescence intensity,[8]; [29],20 MFI
same,fluorescence intensity,[8]; [30],17.5 MFI
same,fluorescence intensity,[8]; [31],19.8 MFI
same,fluorescence intensity,[8]; [24],18.5 MFI
same,fluorescence intensity,[8]; [25],19 MFI
same,fluorescence intensity,[8]; [26],20 MFI
same,fluorescence intensity,[8]; [27],26 MFI
same,fluorescence intensity,[9]; [28],30.5 MFI
same,fluorescence intensity,[9]; [29],32.5 MFI
same,fluorescence intensity,[9]; [30],30 MFI
same,fluorescence intensity,[9]; [31],28 MFI
same,fluorescence intensity,[9]; [24],29.5 MFI
same,fluorescence intensity,[9]; [25],30 MFI
same,fluorescence intensity,[9]; [26],34.8 MFI
same,fluorescence intensity,[9]; [27],80.5 MFI
same,fluorescence intensity,[10]; [28],26 MFI
same,fluorescence intensity,[10]; [29],26.2 MFI
same,fluorescence intensity,[10]; [30],26 MFI
same,fluorescence intensity,[10]; [31],25 MFI
same,fluorescence intensity,[10]; [24],25.5 MFI
same,fluorescence intensity,[10]; [25],25.5 MFI
same,fluorescence intensity,[10]; [26],28 MFI
same,fluorescence intensity,[10]; [27],54.5 MFI
same,fluorescence intensity,[11]; [28],26 MFI
same,fluorescence intensity,[11]; [29],26 MFI
same,fluorescence intensity,[11]; [30],27.5 MFI
same,fluorescence intensity,[11]; [31],27 MFI
same,fluorescence intensity,[11]; [24],25.5 MFI
same,fluorescence intensity,[11]; [25],28 MFI
same,fluorescence intensity,[11]; [26],29.5 MFI
same,fluorescence intensity,[11]; [27],36.5 MFI
same,fluorescence intensity,[12]; [28],19.5 MFI
same,fluorescence intensity,[12]; [29],21.2 MFI
same,fluorescence intensity,[12]; [30],19.5 MFI
same,fluorescence intensity,[12]; [31],21 MFI
same,fluorescence intensity,[12]; [24],20.5 MFI
same,fluorescence intensity,[12]; [25],22.5 MFI
same,fluorescence intensity,[12]; [26],23.2 MFI
same,fluorescence intensity,[12]; [27],29.2 MFI
same,fluorescence intensity,[13]; [28],24.5 MFI
same,fluorescence intensity,[13]; [29],22.8 MFI
same,fluorescence intensity,[13]; [30],23 MFI
same,fluorescence intensity,[13]; [31],21.5 MFI
same,fluorescence intensity,[13]; [24],23 MFI
same,fluorescence intensity,[13]; [25],24.5 MFI
same,fluorescence intensity,[13]; [26],25.5 MFI
same,fluorescence intensity,[13]; [27],56.8 MFI
same,fluorescence intensity,[14]; [28],26.5 MFI
same,fluorescence intensity,[14]; [29],25 MFI
same,fluorescence intensity,[14]; [30],25 MFI
same,fluorescence intensity,[14]; [31],24 MFI
same,fluorescence intensity,[14]; [24],24 MFI
same,fluorescence intensity,[14]; [25],24.5 MFI
same,fluorescence intensity,[14]; [26],25 MFI
same,fluorescence intensity,[14]; [27],32 MFI
same,fluorescence intensity,[15]; [28],19.2 MFI
same,fluorescence intensity,[15]; [29],20.5 MFI
same,fluorescence intensity,[15]; [30],21 MFI
same,fluorescence intensity,[15]; [31],19.5 MFI
same,fluorescence intensity,[15]; [24],19 MFI
same,fluorescence intensity,[15]; [25],20 MFI
same,fluorescence intensity,[15]; [26],21.5 MFI
same,fluorescence intensity,[15]; [27],23 MFI
same,fluorescence intensity,[16]; [28],21.8 MFI
same,fluorescence intensity,[16]; [29],22.5 MFI
same,fluorescence intensity,[16]; [30],24.5 MFI
same,fluorescence intensity,[16]; [31],22.8 MFI
same,fluorescence intensity,[16]; [24],23 MFI
same,fluorescence intensity,[16]; [25],24.5 MFI
same,fluorescence intensity,[16]; [26],23 MFI
same,fluorescence intensity,[16]; [27],36 MFI
same,fluorescence intensity,[17]; [28],31.2 MFI
same,fluorescence intensity,[17]; [29],32 MFI
same,fluorescence intensity,[17]; [30],33.2 MFI
same,fluorescence intensity,[17]; [31],27.5 MFI
same,fluorescence intensity,[17]; [24],32.2 MFI
same,fluorescence intensity,[17]; [25],33.8 MFI
same,fluorescence intensity,[17]; [26],32.8 MFI
same,fluorescence intensity,[17]; [27],36.8 MFI
same,fluorescence intensity,[18]; [28],24.2 MFI
same,fluorescence intensity,[18]; [29],23.5 MFI
same,fluorescence intensity,[18]; [30],25.5 MFI
same,fluorescence intensity,[18]; [31],23.5 MFI
same,fluorescence intensity,[18]; [24],28 MFI
same,fluorescence intensity,[18]; [25],29 MFI
same,fluorescence intensity,[18]; [26],38.5 MFI
same,fluorescence intensity,[18]; [27],56.5 MFI
same,fluorescence intensity,[19]; [28],32 MFI
same,fluorescence intensity,[19]; [29],31 MFI
same,fluorescence intensity,[19]; [30],28.5 MFI
same,fluorescence intensity,[19]; [31],29.5 MFI
same,fluorescence intensity,[19]; [24],31.5 MFI
same,fluorescence intensity,[19]; [25],30.5 MFI
same,fluorescence intensity,[19]; [26],32.5 MFI
same,fluorescence intensity,[19]; [27],38.5 MFI
same,fluorescence intensity,[20]; [28],19.2 MFI
same,fluorescence intensity,[20]; [29],18.5 MFI
same,fluorescence intensity,[20]; [30],18.8 MFI
same,fluorescence intensity,[20]; [31],18.5 MFI
same,fluorescence intensity,[20]; [24],16.5 MFI
same,fluorescence intensity,[20]; [25],18.8 MFI
same,fluorescence intensity,[20]; [26],21 MFI
same,fluorescence intensity,[20]; [27],25 MFI
same,fluorescence intensity,[21]; [28],16 MFI
same,fluorescence intensity,[21]; [29],15.5 MFI
same,fluorescence intensity,[21]; [30],15.5 MFI
same,fluorescence intensity,[21]; [31],16 MFI
same,fluorescence intensity,[21]; [24],15.5 MFI
same,fluorescence intensity,[21]; [25],16.5 MFI
same,fluorescence intensity,[21]; [26],18 MFI
same,fluorescence intensity,[21]; [27],22 MFI
same,fluorescence intensity,[22]; [28],18.5 MFI
same,fluorescence intensity,[22]; [29],19 MFI
same,fluorescence intensity,[22]; [30],17.5 MFI
same,fluorescence intensity,[22]; [31],17.5 MFI
same,fluorescence intensity,[22]; [24],17.5 MFI
same,fluorescence intensity,[22]; [25],19 MFI
same,fluorescence intensity,[22]; [26],20.2 MFI
same,fluorescence intensity,[22]; [27],34 MFI
same,fluorescence intensity,[23]; [28],15.5 MFI
same,fluorescence intensity,[23]; [29],19 MFI
same,fluorescence intensity,[23]; [30],15 MFI
same,fluorescence intensity,[23]; [31],16.8 MFI
same,fluorescence intensity,[23]; [24],16.5 MFI
same,fluorescence intensity,[23]; [25],17.5 MFI
same,fluorescence intensity,[23]; [26],24 MFI
same,fluorescence intensity,[23]; [27],35.5 MFI

# An excerpt of these results, as tab-separated lines.
binder	measurement	setting	value
B1	fluorescence intensity	[4]; [28]	25 MFI
same	fluorescence intensity	[4]; [26]	25 MFI
same	fluorescence intensity	[5]; [30]	29 MFI
same	fluorescence intensity	[6]; [27]	27 MFI
same	fluorescence intensity	[10]; [24]	25.5 MFI
same	fluorescence intensity	[16]; [24]	23 MFI
same	fluorescence intensity	[21]; [26]	18 MFI

# Looked up one by one from the entries so far, two records:
binder,measurement,setting,value
B1,fluorescence intensity,[13]; [31],21.5 MFI
same,fluorescence intensity,[9]; [24],29.5 MFI
